PubChem BioAssay AID2685 (National Center for Advancing Translational Sciences (NCATS), 2010)
The list shows a part of the results. Further columns of the screen follow, without active or inactive calls. Most of these compounds were active or inconclusive in the main read-out, so they are no random draw. Words in brackets tell the shape of the fitted curve; partial curves, single points and poor fits give uncertain potencies. Where a SMILES comes first, the peptide text is derived from it. [ ]: non-standard residue; d: D form. The star is where a group is joined. Tos = Cc1ccc(S(=O)(=O)*)cc1

Experiment: qHTS Assay for Lipid Storage Modulators in Drosophila S3 Cells;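 on cell number change: cells counted by Cell Tracker Red CMTPX staining in the red channel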
Settings: BODIPY lipid droplet fluorescence, 18-24 h; for cell number change: measured here: cell count max response, cells fed with added oleic acid
Procedure, shortened: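 Drosophila S3 cells loaded with oleic acid (400 uM, as added) and compounds at several concentrations; lipid droplets imaged by 488-nm laser-scanning cytometry, 500–530 nm intensity and object ratio to cell channel. Percent activity normalized to 20 uM Triacsin C.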

[1] = measured here: cell number channel AC50, cells fed with added oleic acid
[2] = measured here: lipid fluorescence (Fed channel) AC50, cells fed with added oleic acid

O=C(NC1CCCc2c1cnn2-c1ccc(F)cc1F)c1cnccn1 (stereo not given)
cell number change: -58% | AC50 [1]: 0.326 µM [falling, full curve] | AC50 [2]: 0.731 µM [falling, full curve]

Cn1nc([N+](=O)[O-])nc1N1CCN(c2ccc(F)cc2)CC1
cell number change: 18.3% | AC50 [2]: 0.651 µM [falling, single point]

O=C(NCc1cccnc1)C(=O)Nc1ccc([N+](=O)[O-])cc1
cell number change: 74.1%

COc1ccc(OC)c(NC(=O)CSc2nnc(-c3cnccn3)n2C)c1
cell number change: 5.42% | AC50 [1]: 6.51 µM [rising, single point] | AC50 [2]: 29.1 µM [rising, single point]

O=C(N/N=C/c1ccccc1O)NC12CC3CC(CC(C3)C1)C2
cell number change: -18.1%

CC1CCC2C(=O)N(c3ccc(S(=O)(=O)c4ccccc4)cc3)C(=O)C2C1 (stereo not given)
cell number change: 11.6% | AC50 [2]: 0.116 µM [rising, full curve, poor fit]

CCOC(=O)c1sc(NC(=O)CCN2CCN(CC)CC2)c(C(=O)OCC)c1C
cell number change: 3.42% | AC50 [2]: 3.26 µM [rising, single point]

Cc1ccc(S(=O)(=O)N[C@@H](Cc2ccccc2)C(=O)N2CCC[C@@H]2C(=O)O)cc1 (Tos-Phe-[dP]-OH)
cell number change: -10% | AC50 [2]: 0.291 µM [falling, full curve]

COc1cccc(OCc2cc(C(=O)N3CCC(c4ccncc4)CC3)no2)c1
AC50 [2]: 3.26 µM [falling, partial curve]

COC(=O)/C=C/C(=O)N1CCN(c2ccccc2C)CC1
cell number change: -4%

Nn1cnc2scc(-c3ccc(Cl)cc3)c2c1=O
cell number change: -1.1%

CC(C)(CNC(=O)c1cccc(S(=O)(=O)NCc2ccccc2)c1)N1CCOCC1
AC50 [2]: 23.1 µM [rising, single point]

COC(=O)C1CCN(c2c([N+](=O)[O-])cc(C(F)(F)F)cc2[N+](=O)[O-])CC1
cell number change: 1.95% | AC50 [1]: 6.51 µM [rising, single point]

CC1Cc2ccccc2N1C(=O)CNc1cccc(S(=O)(=O)N2CCCC2)c1 (stereo not given)
cell number change: 7.31% | AC50 [2]: 6.51 µM [rising, single point]

O=C(Nc1ccccc1N1CCN(C(=O)c2ccccc2)CC1)c1cc2ccccc2o1
AC50 [1]: 1.64 µM [rising, partial curve] | AC50 [2]: 1.46 µM [rising, partial curve]

O=C(CN1CCN(S(=O)(=O)c2ccc(Cl)cc2)CC1)c1ccc(O)c(O)c1
cell number change: -41.3% | AC50 [1]: 14.6 µM [falling, single point] | AC50 [2]: 16.4 µM [falling, single point]

CCCCC(CC)COC(=O)C(C#N)=C(c1ccccc1)c1ccccc1 (stereo not given)
cell number change: -37.6% | AC50 [1]: 25.9 µM [falling, single point]

CCCn1cc(SCC(N)=O)c2ccccc21
cell number change: 4.53% | AC50 [2]: 29.1 µM [falling, single point]

O=C(CNC(=O)c1ccccc1F)OCc1nc2ccc(Cl)cc2n1CCO
cell number change: -28.3% | AC50 [2]: 14.6 µM [rising, partial curve, poor fit]

O=C(CCc1ccccc1)Nc1nnc(-c2cccs2)o1
cell number change: 7.08%

O=C(CCN1C(=O)C2CC=CCC2C1=O)Nc1cc(C(F)(F)F)ccc1N1CCCC1 (stereo not given)
cell number change: -5.12% | AC50 [2]: 20.6 µM [rising, partial curve]

C=CCn1c(SCC(=O)c2ccccc2)nnc1-c1ccc2c(c1)OCO2
AC50 [2]: 0.58 µM [rising, single point]

CC(C)c1nnc(NC(=O)C2CCN(c3cnccn3)CC2)s1
cell number change: -25.3% | AC50 [2]: 29.1 µM [falling, single point]

CC1CCC(NC(=O)C2CCN(C(=O)NC3CCCCC3)CC2)CC1 (stereo not given)
cell number change: 6.81%

Cc1nn(-c2cc(N3CCCCC3)ccc2N)c(=O)c2ccccc12
cell number change: 1.68% | AC50 [1]: 6.51 µM [falling, partial curve, poor fit] | AC50 [2]: 5.8 µM [falling, partial curve, poor fit]

CCOC(=O)c1cc2c(OC)ccc(OC)c2n1CC(=O)c1ccccc1
cell number change: -4.93% | AC50 [2]: 25.9 µM [rising, single point]

CCCCn1nnc(N(C(=O)c2cccs2)C(=O)c2cccs2)n1
cell number change: -7.7%

CC(C)=CCN1CCN(Cc2cccn2-c2ccccn2)CC1CCO (stereo not given)
cell number change: 30% | AC50 [1]: 2.31 µM [rising, full curve]

O=C(NCc1cccnc1)c1nnc(Cc2ccc(F)cc2)o1
cell number change: 17.4% | AC50 [2]: 20.6 µM [rising, partial curve]

COc1ccc(C(=O)NCCCCCCNC(=O)c2ccc(OC)cc2)cc1
cell number change: 6.94% | AC50 [2]: 6.51 µM [falling, single point]

Nc1nn(-c2ccccc2)c(N)c1N=Nc1ccccc1F
AC50 [2]: 1.64 µM [rising, partial curve]

COc1ccc(N2C(=O)CC(N3CCN(S(=O)(=O)c4ccc(Cl)cc4)CC3)C2=O)cc1 (stereo not given)
cell number change: -16% | AC50 [2]: 16.4 µM [rising, single point]

CCC(Oc1ccccc1)C(=O)Nc1nnc(S(=O)(=O)Nc2ccccc2)s1 (stereo not given)
cell number change: 12.9% | AC50 [2]: 25.9 µM [rising, single point]

NS(=O)(=O)c1ccc(NC(=O)COC(=O)CCc2ccc(S(=O)(=O)N3CCOCC3)cc2)cc1
cell number change: 27.7% | AC50 [1]: 4.11 µM [falling, single point] | AC50 [2]: 3.66 µM [falling, single point]

CCOCc1c(C(=O)NCc2ccccc2CN2CCCC2)oc2ccccc12
cell number change: 17.2%

COc1ccc(NC(=O)c2ccc3c(c2)C(=O)N(CC2CCCO2)C3=O)cc1 (stereo not given)
cell number change: 16.4% | AC50 [2]: 6.51 µM [rising, single point]

COc1cc(NC(=O)c2cccs2)c(C(=O)OCC(=O)NC(=O)NCc2ccccc2)cc1OC
AC50 [1]: 0.82 µM [rising, full curve] | AC50 [2]: 0.82 µM [rising, full curve]

COc1ccccc1N1CCN(C(CNC(=O)C2CCCCC2)c2cccnc2)CC1 (stereo not given)
AC50 [1]: 1.3 µM [rising, partial curve] | AC50 [2]: 1.84 µM [rising, partial curve]

CC(C)c1[nH]nc2c1C(Cc1ccccc1)C(C#N)=C(N)O2 (stereo not given)
cell number change: -3.28% | AC50 [2]: 6.51 µM [rising, single point]

O=C(Nc1cccc([N+](=O)[O-])c1)C12CC3CC(C1)CC(n1cnc([N+](=O)[O-])n1)(C3)C2
cell number change: 5.05%

Clc1ccc2nc(-c3ccccc3)nc(C(Cl)Cl)c2c1
cell number change: -16.7% | AC50 [1]: 1.64 µM [falling, single point] | AC50 [2]: 1.03 µM [falling, partial curve, poor fit]

COc1ccccc1S(=O)(=O)Nc1ccc(S(=O)(=O)Nc2nccs2)cc1
cell number change: -12.1% | AC50 [2]: 4.11 µM [rising, single point]

CCOc1ccccc1N(CC(=O)Nc1ccc(S(=O)(=O)N2CCOCC2)cc1)S(C)(=O)=O
cell number change: -5.13%

Cc1cc(C)c(C#N)c(Nc2cccc(C)c2C)n1
cell number change: -12.9% | AC50 [2]: 0.517 µM [falling, full curve]

COc1ccc(Cc2nc3ccc(C(=O)NC(C)Cc4ncccc4C)cc3o2)cc1OC (stereo not given)
cell number change: -52.5% | AC50 [1]: 6.51 µM [falling, full curve] | AC50 [2]: 4.11 µM [falling, full curve, poor fit]

CCCCc1c(O)cc(C)[nH]c1=O
cell number change: -37.1% | AC50 [1]: 5.8 µM [falling, full curve] | AC50 [2]: 20.6 µM [falling, single point]

O=C(CN(C(=O)c1csnn1)c1ccc(Br)cc1)NC1CCCC1
cell number change: 21.2% | AC50 [1]: 0.103 µM [rising, full curve, poor fit]

COc1cc(C(Nc2ccc(S(=O)(=O)NCC3CCCO3)cc2)C(=O)NC(C)(C)C)cc(OC)c1OC (stereo not given)
cell number change: -20.1% | AC50 [2]: 23.1 µM [falling, single point]

Nc1nnnn1/N=C/c1ccccc1OCc1ccccc1
AC50 [2]: 1.16 µM [rising, full curve]

NC(=O)c1ccc(C(=O)c2ccc([N+](=O)[O-])cc2)cc1
cell number change: -23.5% | AC50 [2]: 6.51 µM [rising, partial curve]

COc1ccc(-c2csc(NCc3ccco3)n2)cc1C
cell number change: 9.46% | AC50 [2]: 0.651 µM [rising, single point]

O=C1/C(=C/c2cccnc2)Sc2ccccc21
cell number change: -20.6% | AC50 [2]: 23.1 µM [falling, single point]

CCNC(=O)NC(=O)COC(=O)CNC(=O)COc1ccccc1
cell number change: -10.5% | AC50 [2]: 1.16 µM [falling, full curve, poor fit]

O=C(Nc1nnc(-c2ccco2)s1)C1CC1
cell number change: -17.3%

CC1CCC2(CC1)NC(=O)N(CC(=O)N(Cc1ccccc1)C(C)(C)C)C2=O (stereo not given)
cell number change: -17.8% | AC50 [2]: 6.51 µM [rising, partial curve, poor fit]

COc1ccc(C(=O)NCC2CCCCC2)cc1S(=O)(=O)N1CCCC1
cell number change: 13.1% | AC50 [2]: 29.1 µM [falling, single point]

CC(=O)Nc1cccc(NC(=O)CSc2nnc(Cc3cccn3C)n2-c2ccc(C)cc2)c1
cell number change: -20.5% | AC50 [2]: 0.0517 µM [falling, full curve]

CCOc1c(Cl)cc(/C=N/O)cc1OC
cell number change: -2.88% | AC50 [2]: 6.51 µM [falling, single point]

O=C(CN1C(=O)c2ccc([N+](=O)[O-])cc2C1=O)NC1CCCCCC1
cell number change: -75% | AC50 [1]: 4.11 µM [falling, full curve]

CN1/C(=C\C=C2/C(=O)Oc3ccccc3C2=O)C(C)(C)c2ccccc21
cell number change: -99.8% | AC50 [1]: 5.17 µM [falling, full curve] | AC50 [2]: 2.31 µM [falling, full curve]

Cc1ccc(NC(=O)N2CCCC2C(=O)NCCC2=CCCCC2)cc1 (stereo not given)
cell number change: 0.068% | AC50 [2]: 13 µM [falling, partial curve, poor fit]
